Measured values from the supplement of paper PMC12067093, “Discovery and optimisation of a covalent ligand for TRIM25 and its application to targeted protein ubiquitination” (Chemical Science, 2025).
This is one part of the list.

Chains of the proteins cited; added tags and fusions are not shown. Lines headed by an entry give the natural chain unless they say otherwise; changes in a name come on top.
UniProt Q5TA45, whole entry, looked up: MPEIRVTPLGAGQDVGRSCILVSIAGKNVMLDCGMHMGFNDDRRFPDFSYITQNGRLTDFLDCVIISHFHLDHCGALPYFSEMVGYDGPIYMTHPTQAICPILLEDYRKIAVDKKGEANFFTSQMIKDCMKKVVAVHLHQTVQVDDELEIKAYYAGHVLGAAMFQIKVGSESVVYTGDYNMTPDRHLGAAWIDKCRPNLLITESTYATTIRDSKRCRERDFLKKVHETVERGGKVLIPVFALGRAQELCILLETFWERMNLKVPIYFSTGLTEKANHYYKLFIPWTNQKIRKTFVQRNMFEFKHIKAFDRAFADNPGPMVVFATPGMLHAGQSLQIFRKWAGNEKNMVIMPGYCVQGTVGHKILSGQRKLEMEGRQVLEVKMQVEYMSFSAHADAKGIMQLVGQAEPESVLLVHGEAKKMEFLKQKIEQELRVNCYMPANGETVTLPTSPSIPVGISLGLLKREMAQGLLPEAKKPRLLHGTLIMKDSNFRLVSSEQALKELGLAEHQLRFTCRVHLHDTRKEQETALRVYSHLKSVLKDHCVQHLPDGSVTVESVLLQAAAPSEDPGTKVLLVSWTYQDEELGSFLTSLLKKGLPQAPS
UniProt P05107, whole entry, looked up: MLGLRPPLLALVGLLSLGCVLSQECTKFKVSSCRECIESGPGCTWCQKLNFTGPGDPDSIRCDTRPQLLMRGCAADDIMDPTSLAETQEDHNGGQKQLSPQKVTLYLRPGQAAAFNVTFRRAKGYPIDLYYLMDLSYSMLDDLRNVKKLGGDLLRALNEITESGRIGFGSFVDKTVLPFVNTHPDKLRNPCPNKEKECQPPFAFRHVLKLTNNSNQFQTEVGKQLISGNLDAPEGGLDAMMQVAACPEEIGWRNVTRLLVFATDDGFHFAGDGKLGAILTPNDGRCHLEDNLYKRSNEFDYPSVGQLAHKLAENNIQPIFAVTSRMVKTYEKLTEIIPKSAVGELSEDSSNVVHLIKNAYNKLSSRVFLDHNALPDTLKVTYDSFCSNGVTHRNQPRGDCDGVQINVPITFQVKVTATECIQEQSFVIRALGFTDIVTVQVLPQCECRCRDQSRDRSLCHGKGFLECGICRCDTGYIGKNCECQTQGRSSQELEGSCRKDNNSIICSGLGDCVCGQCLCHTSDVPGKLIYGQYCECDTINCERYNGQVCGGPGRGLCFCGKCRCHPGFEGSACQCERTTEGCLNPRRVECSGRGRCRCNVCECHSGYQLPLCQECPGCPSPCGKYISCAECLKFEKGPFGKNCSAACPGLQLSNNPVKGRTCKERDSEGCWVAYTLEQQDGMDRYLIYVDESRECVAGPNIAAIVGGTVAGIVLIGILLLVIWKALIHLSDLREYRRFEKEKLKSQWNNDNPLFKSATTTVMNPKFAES
UniProt Q9NVH2, whole entry, looked up: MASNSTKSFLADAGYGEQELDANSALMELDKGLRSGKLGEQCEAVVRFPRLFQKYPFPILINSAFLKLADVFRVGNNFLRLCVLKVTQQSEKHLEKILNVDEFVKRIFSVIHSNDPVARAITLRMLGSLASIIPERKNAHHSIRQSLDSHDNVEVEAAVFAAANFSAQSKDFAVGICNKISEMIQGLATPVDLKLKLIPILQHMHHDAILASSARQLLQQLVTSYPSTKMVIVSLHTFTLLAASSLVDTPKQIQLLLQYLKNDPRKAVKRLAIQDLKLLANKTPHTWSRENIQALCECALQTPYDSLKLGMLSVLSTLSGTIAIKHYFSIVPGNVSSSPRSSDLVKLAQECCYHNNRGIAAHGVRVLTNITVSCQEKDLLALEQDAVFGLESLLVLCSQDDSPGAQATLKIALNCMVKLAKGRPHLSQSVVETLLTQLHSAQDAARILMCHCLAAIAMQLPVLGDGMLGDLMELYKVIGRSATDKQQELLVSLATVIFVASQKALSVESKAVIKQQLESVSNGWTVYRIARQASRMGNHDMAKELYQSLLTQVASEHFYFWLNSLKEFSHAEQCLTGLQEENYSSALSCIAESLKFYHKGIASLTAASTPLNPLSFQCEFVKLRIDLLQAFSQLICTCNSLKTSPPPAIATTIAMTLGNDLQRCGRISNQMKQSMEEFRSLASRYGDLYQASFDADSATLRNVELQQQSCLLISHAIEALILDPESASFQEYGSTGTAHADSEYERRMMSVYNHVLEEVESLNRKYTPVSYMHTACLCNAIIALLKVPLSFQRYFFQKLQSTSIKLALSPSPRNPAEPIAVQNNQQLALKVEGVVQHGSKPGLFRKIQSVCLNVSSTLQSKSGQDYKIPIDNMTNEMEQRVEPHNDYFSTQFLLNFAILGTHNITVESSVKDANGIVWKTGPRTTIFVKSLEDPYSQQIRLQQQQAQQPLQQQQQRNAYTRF
UniProt O14713: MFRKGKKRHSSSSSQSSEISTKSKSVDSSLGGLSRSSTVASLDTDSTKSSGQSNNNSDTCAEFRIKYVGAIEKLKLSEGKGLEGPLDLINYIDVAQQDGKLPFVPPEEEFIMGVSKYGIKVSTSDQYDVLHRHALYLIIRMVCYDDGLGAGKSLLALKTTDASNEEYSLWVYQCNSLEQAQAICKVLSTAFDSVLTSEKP
UniProt Q8N201, whole entry, looked up: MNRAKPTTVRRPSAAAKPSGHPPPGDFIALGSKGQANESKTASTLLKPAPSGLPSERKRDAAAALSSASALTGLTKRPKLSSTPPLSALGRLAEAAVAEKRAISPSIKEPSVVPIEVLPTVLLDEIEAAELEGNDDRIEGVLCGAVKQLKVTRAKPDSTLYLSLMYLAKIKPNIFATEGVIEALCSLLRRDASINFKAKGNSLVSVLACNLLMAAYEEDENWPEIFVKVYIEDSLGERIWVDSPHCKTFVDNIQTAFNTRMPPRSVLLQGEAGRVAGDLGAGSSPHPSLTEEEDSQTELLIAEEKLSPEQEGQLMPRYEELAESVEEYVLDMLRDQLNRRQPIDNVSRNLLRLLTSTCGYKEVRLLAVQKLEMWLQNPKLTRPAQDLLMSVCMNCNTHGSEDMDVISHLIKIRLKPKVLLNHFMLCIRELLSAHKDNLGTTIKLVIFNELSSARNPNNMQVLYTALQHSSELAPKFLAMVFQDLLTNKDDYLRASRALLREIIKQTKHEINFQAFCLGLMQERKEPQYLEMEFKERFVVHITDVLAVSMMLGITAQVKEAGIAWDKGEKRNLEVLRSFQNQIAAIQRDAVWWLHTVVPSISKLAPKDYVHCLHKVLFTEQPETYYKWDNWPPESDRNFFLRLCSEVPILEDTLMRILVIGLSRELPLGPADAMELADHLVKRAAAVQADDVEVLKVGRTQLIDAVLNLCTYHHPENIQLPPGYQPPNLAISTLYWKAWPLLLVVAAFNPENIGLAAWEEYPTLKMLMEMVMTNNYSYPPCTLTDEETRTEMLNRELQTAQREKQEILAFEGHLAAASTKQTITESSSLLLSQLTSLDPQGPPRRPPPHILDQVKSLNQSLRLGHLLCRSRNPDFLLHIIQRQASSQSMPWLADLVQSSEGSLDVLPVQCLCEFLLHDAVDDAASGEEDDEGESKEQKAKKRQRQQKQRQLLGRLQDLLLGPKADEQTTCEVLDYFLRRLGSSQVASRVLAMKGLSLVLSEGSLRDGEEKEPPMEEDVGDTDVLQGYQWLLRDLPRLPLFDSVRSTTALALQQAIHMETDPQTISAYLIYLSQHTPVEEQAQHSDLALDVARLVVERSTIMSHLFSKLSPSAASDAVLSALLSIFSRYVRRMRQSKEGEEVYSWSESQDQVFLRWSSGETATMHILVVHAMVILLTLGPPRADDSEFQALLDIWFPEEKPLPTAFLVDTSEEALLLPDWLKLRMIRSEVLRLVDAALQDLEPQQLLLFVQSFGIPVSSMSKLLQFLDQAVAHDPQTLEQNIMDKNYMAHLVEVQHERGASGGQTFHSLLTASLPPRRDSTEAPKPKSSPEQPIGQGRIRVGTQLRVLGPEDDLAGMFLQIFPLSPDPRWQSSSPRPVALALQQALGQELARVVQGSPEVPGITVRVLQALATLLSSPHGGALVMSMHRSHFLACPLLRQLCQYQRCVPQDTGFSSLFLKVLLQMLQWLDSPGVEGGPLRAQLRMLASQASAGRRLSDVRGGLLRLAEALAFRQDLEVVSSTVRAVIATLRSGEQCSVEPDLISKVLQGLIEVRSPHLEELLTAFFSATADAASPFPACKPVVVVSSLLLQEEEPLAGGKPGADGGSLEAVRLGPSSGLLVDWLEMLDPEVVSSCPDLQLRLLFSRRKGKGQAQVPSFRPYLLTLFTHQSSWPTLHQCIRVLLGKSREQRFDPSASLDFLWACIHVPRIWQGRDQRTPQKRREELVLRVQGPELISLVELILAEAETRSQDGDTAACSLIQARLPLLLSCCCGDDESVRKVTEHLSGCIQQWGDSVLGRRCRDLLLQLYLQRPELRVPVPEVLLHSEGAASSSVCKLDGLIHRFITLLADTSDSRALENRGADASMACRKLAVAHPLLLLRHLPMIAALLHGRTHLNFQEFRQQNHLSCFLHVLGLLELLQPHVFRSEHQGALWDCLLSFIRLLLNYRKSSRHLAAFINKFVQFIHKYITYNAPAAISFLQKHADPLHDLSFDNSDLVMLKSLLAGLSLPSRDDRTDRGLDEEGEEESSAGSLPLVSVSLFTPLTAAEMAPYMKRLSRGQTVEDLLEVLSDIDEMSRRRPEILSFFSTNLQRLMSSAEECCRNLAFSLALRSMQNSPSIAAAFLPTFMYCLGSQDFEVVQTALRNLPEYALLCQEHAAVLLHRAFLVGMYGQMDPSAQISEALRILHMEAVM
UniProt Q8TEX9: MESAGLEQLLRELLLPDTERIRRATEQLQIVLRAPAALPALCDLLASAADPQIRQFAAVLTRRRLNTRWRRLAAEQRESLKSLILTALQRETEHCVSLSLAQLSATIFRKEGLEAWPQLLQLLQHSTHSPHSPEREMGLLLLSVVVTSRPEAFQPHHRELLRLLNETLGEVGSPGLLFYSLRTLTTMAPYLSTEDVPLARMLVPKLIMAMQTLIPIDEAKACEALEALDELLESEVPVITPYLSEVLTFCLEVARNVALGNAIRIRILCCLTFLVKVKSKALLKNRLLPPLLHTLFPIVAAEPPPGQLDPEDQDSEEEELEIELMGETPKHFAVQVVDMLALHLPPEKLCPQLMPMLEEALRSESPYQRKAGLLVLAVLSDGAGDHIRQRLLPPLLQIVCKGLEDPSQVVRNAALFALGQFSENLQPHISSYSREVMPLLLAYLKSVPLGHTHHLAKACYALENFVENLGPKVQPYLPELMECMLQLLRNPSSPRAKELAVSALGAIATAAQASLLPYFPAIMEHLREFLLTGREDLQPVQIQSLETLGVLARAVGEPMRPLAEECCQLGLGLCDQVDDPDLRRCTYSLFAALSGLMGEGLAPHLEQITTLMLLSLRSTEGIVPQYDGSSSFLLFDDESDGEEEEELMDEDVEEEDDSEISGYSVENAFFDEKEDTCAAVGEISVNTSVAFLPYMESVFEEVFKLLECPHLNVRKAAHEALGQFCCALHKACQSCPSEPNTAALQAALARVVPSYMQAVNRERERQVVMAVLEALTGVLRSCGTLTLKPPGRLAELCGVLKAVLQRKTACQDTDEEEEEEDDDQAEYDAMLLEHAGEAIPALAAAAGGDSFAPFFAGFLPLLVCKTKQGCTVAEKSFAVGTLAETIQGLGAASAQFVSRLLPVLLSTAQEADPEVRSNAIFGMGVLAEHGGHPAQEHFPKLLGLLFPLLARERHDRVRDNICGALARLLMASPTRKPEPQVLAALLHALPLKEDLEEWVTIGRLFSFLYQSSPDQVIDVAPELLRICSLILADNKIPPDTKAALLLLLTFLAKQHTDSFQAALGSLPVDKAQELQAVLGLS
UniProt Q7Z5L9: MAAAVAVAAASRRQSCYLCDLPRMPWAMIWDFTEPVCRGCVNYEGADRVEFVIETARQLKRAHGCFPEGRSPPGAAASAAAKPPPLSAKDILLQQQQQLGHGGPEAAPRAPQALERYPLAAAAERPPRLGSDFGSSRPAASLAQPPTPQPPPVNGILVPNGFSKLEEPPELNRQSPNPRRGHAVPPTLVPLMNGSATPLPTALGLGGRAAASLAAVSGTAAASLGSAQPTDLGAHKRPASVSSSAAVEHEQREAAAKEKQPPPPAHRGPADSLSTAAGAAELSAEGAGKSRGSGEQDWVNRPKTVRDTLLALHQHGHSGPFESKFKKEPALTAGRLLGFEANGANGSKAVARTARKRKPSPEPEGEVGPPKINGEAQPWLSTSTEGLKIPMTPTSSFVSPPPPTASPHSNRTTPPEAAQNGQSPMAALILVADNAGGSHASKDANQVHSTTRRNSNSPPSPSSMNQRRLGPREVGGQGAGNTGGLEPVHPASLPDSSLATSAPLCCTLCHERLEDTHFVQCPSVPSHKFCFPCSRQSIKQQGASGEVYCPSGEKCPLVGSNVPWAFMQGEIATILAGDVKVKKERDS

Compound: Cc1cc(ccc1-c1ccccc1)C(=O)N1CCCN(CC1)C(=O)CCl [compound 10]
Assay: probe-labelled cysteine peptide fold change vs DMSO (competition) (log2 fold change); higher = less target engagement (more negative = stronger competition)
Conditions: THP-1, incubation time: 4 h
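Also: competitive profiling in live THP-1 cells: cysteine peptides tagged with an iodoacetamide desthiobiotin (IA-DTB) probe, intensity after compound treatment relative to DMSO-treated cells.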

Target: INTS11_Q5TA45_354_NMVIMPGYCVQGTVGHK (UniProt Q5TA45)
- probe-labelled cysteine peptide fold change (10 µM): 0.0373
- probe-labelled cysteine peptide fold change (50 µM): 0.00217

Target: ITGB2_P05107_573+575_CHPGFEGSACQCER (UniProt P05107)
- probe-labelled cysteine peptide fold change (10 µM): -0.116
- probe-labelled cysteine peptide fold change (50 µM): -0.361

Target: INTS5_Q6P9B9_821_AVAVTLVESVCPDAAGAELAWPPEEHAR (UniProt Q6P9B9)
- probe-labelled cysteine peptide fold change (10 µM): 0.194
- probe-labelled cysteine peptide fold change (50 µM): 0.0309

Target: INTS7_Q9NVH2_42_LGEQCEAVVR (UniProt Q9NVH2)
- probe-labelled cysteine peptide fold change (10 µM): -0.174
- probe-labelled cysteine peptide fold change (50 µM): 0.125

Target: ITGB1BP1_O14713_60_SSGQSNNNSDTCAEFR (UniProt O14713)
- probe-labelled cysteine peptide fold change (10 µM): -0.232
- probe-labelled cysteine peptide fold change (50 µM): -0.427

Target: INTS1_Q8N201_2099_LMSSAEECCR (UniProt Q8N201)
- probe-labelled cysteine peptide fold change (10 µM): 0.0884
- probe-labelled cysteine peptide fold change (50 µM): -0.34

Target: IPO5_O00410_986_FKPDCVNVEEVLPHWLSWLPLHEDK (UniProt O00410)
- probe-labelled cysteine peptide fold change (10 µM): 0.126
- probe-labelled cysteine peptide fold change (50 µM): 0.482

Target: IPO4_Q8TEX9_42_APAALPALCDLLASAADPQIR (UniProt Q8TEX9)
- probe-labelled cysteine peptide fold change (10 µM): -0.0477
- probe-labelled cysteine peptide fold change (50 µM): -0.0791

Target: ITGB2_P05107_73_GCAADDIMDPTSLAETQEDHNGGQK (UniProt P05107)
- probe-labelled cysteine peptide fold change (10 µM): 0.0624
- probe-labelled cysteine peptide fold change (50 µM): 0.0533

Target: IRF8_Q02556_410_MFPDICASHQR (UniProt Q02556)
- probe-labelled cysteine peptide fold change (10 µM): -0.309
- probe-labelled cysteine peptide fold change (50 µM): -0.457

Target: ITGB2_P05107_36_ECIESGPGCTWCQK (UniProt P05107)
- probe-labelled cysteine peptide fold change (10 µM): 0.199
- probe-labelled cysteine peptide fold change (50 µM): 0.128

Target: IRF2BP2_Q7Z5L9_19_RQSCYLCDLPR (UniProt Q7Z5L9)
- probe-labelled cysteine peptide fold change (10 µM): -0.261
- probe-labelled cysteine peptide fold change (50 µM): -0.459

Target: IRF2BP2_Q7Z5L9_549_QQGASGEVYCPSGEK (UniProt Q7Z5L9)
- probe-labelled cysteine peptide fold change (10 µM): 0.0971
- probe-labelled cysteine peptide fold change (50 µM): -0.352

Target: IPO9_Q96P70_639_ELSQIEACQGPMQMR (UniProt Q96P70)
- probe-labelled cysteine peptide fold change (10 µM): 0.0381
- probe-labelled cysteine peptide fold change (50 µM): -0.0191
